PubChem BioAssay AID686943 – Drosophila RNAi Screening Center – 2013
The deposit covers about 23,000 reagents; below is an unselected part of those that have a named target and a result. 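Extra replicates exist only for a retested subset of genes; insulin dose and duration not given; both raised and lowered dpERK matter.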 Reagents against one gene are numbered here. Names joined by + are all predicted targets of the reagent. Further read-outs or replicates are left out here. The record does not give: the amount of reagent, the time to read-out.

Assay: 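Search across the genome for regulators of signalling from receptor tyrosine kinase to ERK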 (primary screen)
Cells: Drosophila S2R+ haemocyte-like cells expressing YFP-tagged ERK (Rolled)
Reagents: long dsRNA against Drosophila genes
Challenge: insulin stimulation versus unstimulated cells; dose and duration not given
Detection: 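Antibody staining for doubly phosphorylated ERK divided by ERK-YFP signal, as plate z-scores, in insulin-treated and untreated cells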
Scale: replicate 1, z-score of dpERK with insulin and replicate 2, z-score of dpERK with insulin: higher = more active ERK per ERK-YFP after insulin

For CG15115, the values are replicate 1, z-score of dpERK with insulin -0.55; replicate 2, z-score of dpERK with insulin -0.25.
Depletion of Hpd came out at: replicate 1, z-score of dpERK with insulin -0.3; replicate 2, z-score of dpERK with insulin -0.19.
Depletion of CG30414 came out at: replicate 1, z-score of dpERK with insulin -0.75; replicate 2, z-score of dpERK with insulin 1.27.
With knock-down of RpS3, the screen gave replicate 1, z-score of dpERK with insulin 0.61; replicate 2, z-score of dpERK with insulin -0.23.
Knock-down of CG8372 came out at: replicate 1, z-score of dpERK with insulin -0.31; replicate 2, z-score of dpERK with insulin -0.18.
Against CG10097 + CG10096 #1, the values are replicate 1, z-score of dpERK with insulin -0.67; replicate 2, z-score of dpERK with insulin 0.07.
For CG10097 + CG10096 #2 the deposit lists replicate 1, z-score of dpERK with insulin 0.04; replicate 2, z-score of dpERK with insulin 0.1.
Depletion of Ttc26 gave: replicate 1, z-score of dpERK with insulin -0.73; replicate 2, z-score of dpERK with insulin 0.02.
chico showed replicate 1, z-score of dpERK with insulin 2.28; replicate 2, z-score of dpERK with insulin 2.93.
For CG13325 the deposit lists replicate 1, z-score of dpERK with insulin -1.5; replicate 2, z-score of dpERK with insulin -0.49.
With knock-down of Hydr1, the record shows replicate 1, z-score of dpERK with insulin -0.22; replicate 2, z-score of dpERK with insulin 0.02.
Silencing of sff resulted in: replicate 1, z-score of dpERK with insulin -0.03; replicate 2, z-score of dpERK with insulin 0.23.
After knock-down of Phyhd1, the record shows replicate 1, z-score of dpERK with insulin 1.46; replicate 2, z-score of dpERK with insulin 1.51.
CAH4 scored replicate 1, z-score of dpERK with insulin 0.25; replicate 2, z-score of dpERK with insulin -0.13.
After knock-down of PPO1 the results were replicate 1, z-score of dpERK with insulin 0.15; replicate 2, z-score of dpERK with insulin 0.28.
With knock-down of CG32448 the results were replicate 1, z-score of dpERK with insulin -0.39; replicate 2, z-score of dpERK with insulin -0.14.
After knock-down of beta3GalTII, the screen gave replicate 1, z-score of dpERK with insulin 0.4; replicate 2, z-score of dpERK with insulin 1.64.
For Ir52a the deposit lists replicate 1, z-score of dpERK with insulin 0.05; replicate 2, z-score of dpERK with insulin -0.24.
Knock-down of Parp1 #1 gave: replicate 1, z-score of dpERK with insulin 0.32; replicate 2, z-score of dpERK with insulin 0.59.
Depletion of Parp1 #2 gave: replicate 1, z-score of dpERK with insulin 0.42; replicate 2, z-score of dpERK with insulin 1.38.
Parp1 #3 showed replicate 1, z-score of dpERK with insulin 0.48; replicate 2, z-score of dpERK with insulin 0.51.
Spf30 showed replicate 1, z-score of dpERK with insulin -0.45; replicate 2, z-score of dpERK with insulin 0.97.
For CG30430 the deposit lists replicate 1, z-score of dpERK with insulin 1.03; replicate 2, z-score of dpERK with insulin 1.15.
For TotZ, the entry reads replicate 1, z-score of dpERK with insulin -1.01; replicate 2, z-score of dpERK with insulin 0.2.
nuf #1 showed replicate 1, z-score of dpERK with insulin 0.7; replicate 2, z-score of dpERK with insulin -0.06.
nuf #2 gave replicate 1, z-score of dpERK with insulin -2.43; replicate 2, z-score of dpERK with insulin -2.9.
Against Hasp, the values are replicate 1, z-score of dpERK with insulin -0.24; replicate 2, z-score of dpERK with insulin -0.29.
For amrt, the entry reads replicate 1, z-score of dpERK with insulin 0.07; replicate 2, z-score of dpERK with insulin -0.94.
Depletion of Ir21a + asRNA:CR43609 gave: replicate 1, z-score of dpERK with insulin -0.34; replicate 2, z-score of dpERK with insulin -0.7.
Depletion of Son resulted in: replicate 1, z-score of dpERK with insulin 1.17; replicate 2, z-score of dpERK with insulin 0.49.
With knock-down of su(f), the record shows replicate 1, z-score of dpERK with insulin 1.79; replicate 2, z-score of dpERK with insulin 1.45.

2 neighbouring reagents already listed, for reference:
Ir21a + asRNA:CR43609 — replicate 1, z-score of dpERK with insulin: -0.34; replicate 2, z-score of dpERK with insulin: -0.7
Son — replicate 1, z-score of dpERK with insulin: 1.17; replicate 2, z-score of dpERK with insulin: 0.49
